According to PubChem BioAssay AID1487 (National Center for Advancing Translational Sciences (NCATS), 2009):
Some of the results follow. The main result of the screen is listed elsewhere. These columns were measured beside it and carry no call. The list favours compounds with an active or inconclusive main result. Words in brackets tell the shape of the fitted curve; partial curves, single points and poor fits give uncertain potencies.

Test: qHTS Assay for Modulators of Lamin A Splicing
Settings: HeLa LMNA splicing GFP/RFP minigene ratio, 48 h
In short: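 Read-out is the ratio of GFP to DsRed2 object intensity, acquired by 488 nm laser-scanning cytometry on HeLa lamin A-EGFP minigene reporter cells. Compound incubation 48 hrs at 37 °C in Opti-MEM with 2% FBS; DMSO 0.5% final.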

[1] = measured here: GFP splicing reporter channel
[2] = measured here: RFP viability control channel

Row | Compound | AC50 [1] | AC50 [2]
1 | CCCCNC(=O)c1sc2ncnc(N3CCc4ccccc4C3)c2c1C | 12.6 µM [rising, single point] | 15.8 µM [rising, single point]
2 | CCC1CN(C(=O)N2CCC(C(=O)N3CCN(c4cc(C)ccc4C)CC3)CC2)c2ccccc2O1 (configuration not stated) | 0.0158 µM [rising, full curve] | –
3 | CC(=O)Cc1nsc(Nc2cccc(C)c2)n1 | 0.631 µM [falling, full curve, poor fit] | 0.794 µM [falling, full curve, poor fit]
4 | CC1(C)Cc2cccc(OCC(=O)N3CCN(c4ccc([N+](=O)[O-])cc4)CC3)c2O1 | – | 22.4 µM [rising, single point]
5 | COc1ccc(-c2cc3ccc(O)c(CN4CCCC4)c3oc2=O)cc1OC | 0.708 µM [rising, single point] | –
6 | COc1ccc(OC)c(S(=O)(=O)NCCOC23CC4CC(CC(C4)C2)C3)c1 | 15.8 µM [rising, single point] | 25.1 µM [rising, single point]
7 | CC(=O)Nc1ccc(SCC(=O)Nc2cc(C(C)(C)C)nn2-c2ccccc2)cc1 | – | 22.4 µM [rising, single point]
8 | CCOC(=O)C1=C(Cc2ccc(F)cc2)C(=O)c2ccccc2C1=O | 35.5 µM [falling, single point] | –
9 | CCOC(=O)c1c(NC(=O)CC2SC(N)=NC2=O)sc(C)c1C (configuration not stated) | 3.55 µM [falling, partial curve, poor fit] | –
10 | Cc1ccc(CN2CCN(Cc3cccn3-c3ccccn3)CC2CCO)cc1 (configuration not stated) | 0.398 µM [falling, partial curve] | 0.251 µM [falling, full curve]
11 | Brc1ccc(CSc2ncnc3nc[nH]c23)cc1 | – | 35.5 µM [rising, single point]
12 | Cc1ccc2nc(N(Cc3cccnc3)C(=O)CCOc3ccccc3)sc2c1 | – | 10 µM [rising, single point]
13 | O=C(/C(=C/O)N=Nc1cccc(C(F)(F)F)c1)c1ccccc1 | 0.0891 µM [rising, full curve, poor fit] | 3.98 µM [rising, partial curve]
14 | CCc1nnc(NC(=O)c2ccc(-c3ccc(F)cc3)o2)s1 | – | 15.8 µM [rising, single point]
15 | Cc1ccc(C)c(NC(=S)NCC(c2cccnc2)N2CCOCC2)c1 (configuration not stated) | – | 5.62 µM [rising, single point]
16 | CCOC(=O)C1=C(C)OC(N)=C(C(=O)OCC)C1c1ccncc1 (configuration not stated) | 31.6 µM [rising, single point] | –
17 | CCc1ccc(NC(=O)CSc2nc3c([nH]c4ccccc43)c(=O)n2-c2cccc(OC)c2)cc1 | – | 0.02 µM [falling, full curve, poor fit]
18 | COc1ccc(C(c2nnnn2C(C)(C)C)N2CCN(c3nc4ccccc4s3)CC2)cc1OC (configuration not stated) | 8.91 µM [rising, partial curve] | 14.1 µM [rising, partial curve]
19 | CCCCCn1c(=O)c2c(nc3n2CCN3c2ccc(Br)cc2)n(C)c1=O | – | 0.00501 µM [falling, full curve, poor fit]
20 | COc1cc(C)ccc1OCCSc1nc2ccc(NC(C)=O)cc2s1 | – | 22.4 µM [falling, single point]
21 | CC(C)(C)OC(=O)NCCc1nnc(SCc2c(Cl)cccc2Cl)o1 | – | 12.6 µM [rising, single point]
22 | Cc1ccc(-n2[nH]c(C)c(/C=N/Nc3ccc([N+](=O)[O-])cc3[N+](=O)[O-])c2=O)cc1 | – | 17.8 µM [rising, partial curve, poor fit]
23 | Cc1cccc(NC(=O)c2ccccc2NC(=O)C2CCCCC2)c1C | 8.91 µM [falling, single point] | 15.8 µM [falling, single point]
24 | COc1ccc(C(=O)N(Cc2ccc(N(C)C)cc2)C2CCS(=O)(=O)C2)cc1 (configuration not stated) | – | 14.1 µM [rising, single point]
25 | COc1ccc(-c2nnc(SCC(=O)N3CCC(Cc4ccccc4)CC3)o2)cc1OC | 17.8 µM [rising, single point] | 17.8 µM [rising, single point]
26 | N#Cc1ccccc1-c1ccc2ncnc(NCc3cccs3)c2c1 | 15.8 µM [falling, partial curve] | 15.8 µM [falling, partial curve]
27 | Clc1ccc(-c2nnc(-c3ccco3)nc2N2CCCCC2)cc1 | 10 µM [rising, partial curve, poor fit] | 8.91 µM [rising, single point]
28 | CCN1C(=O)c2ccccc2Sc2ccc(NC(=O)c3ccc(C#N)cc3)cc21 | – | 0.562 µM [falling, full curve, poor fit]

Row | Compound | AC50 [1] | AC50 [2]
29 | Cc1ccc(CN2CCN(CC(=O)O)C2=O)cc1 | – | 3.98 µM [falling, single point]
30 | Cc1nnc(C)n1/N=C/c1cccc(Oc2ccccc2)c1 | – | 35.5 µM [rising, single point]
31 | Cc1nn(-c2ccccc2)c(C)c1/C=N/n1c(-c2ccc(C(C)(C)C)cc2)n[nH]c1=S | 17.8 µM [falling, single point] | 15.8 µM [falling, single point]
32 | CN(C)c1ccc(C(=S)N2CCN(c3ccccc3)CC2)cc1 | 17.8 µM [rising, single point] | 14.1 µM [rising, single point]
33 | Cc1c(C(=O)N(C)C)sc2c1c(=O)n(-c1ccccc1C(F)(F)F)c(=O)n2Cc1cccc(F)c1 | 2 µM [rising, partial curve] | 0.0251 µM [rising, full curve, poor fit]
34 | COc1cc(S(=O)(=O)N2CCN(c3ccccc3)CC2)ccc1F | 0.0251 µM [falling, full curve, poor fit] | 0.0708 µM [falling, full curve]
35 | Nc1c(C(=O)c2ccccc2)sc(Nc2ccc(Cl)c(Cl)c2)c1C(=O)Nc1ccccc1 | 3.16 µM [falling, single point] | –
36 | COc1ccc(OCCNC(=O)c2ccccc2OCC(=O)Nc2ccc(NC(C)=O)cc2)cc1 | 0.112 µM [falling, full curve, poor fit] | 0.126 µM [falling, partial curve, poor fit]
37 | COc1ccc(OCc2cccc(C(=O)N3CCCC3)c2)cc1 | – | 35.5 µM [rising, single point]
38 | Cc1ccc(-n2nnnc2SC(C)C(=O)Nc2ccccc2-c2ccccc2)cc1 (configuration not stated) | – | 35.5 µM [rising, single point]
39 | COC1=C(OC)C(=O)c2ccccc2C1=O | 12.6 µM [falling, partial curve, poor fit] | 12.6 µM [falling, partial curve, poor fit]
40 | CCCC1(c2ccccc2)NC(=O)N(CC(=O)Nc2cc(C)on2)C1=O (configuration not stated) | – | 11.2 µM [rising, partial curve, poor fit]
41 | NS(=O)(=O)c1cccnc1Nc1c(Cl)cccc1Cl | 31.6 µM [falling, single point] | 35.5 µM [falling, single point]
42 | Cc1ccc(-n2c(SCC(=O)Nc3ccc4c(c3)OCCO4)nnc2-c2ccco2)cc1 | 3.98 µM [rising, full curve, poor fit] | –
43 | O=C(C1CC2CCC1C2)N1CCN(Cc2ccc3c(c2)OCO3)CC1 (configuration not stated) | – | 4.47 µM [rising, partial curve, poor fit]
44 | COC(=O)c1[nH]c2c(c1C)C(=O)CC(c1ccccc1)C2 (configuration not stated) | – | 1.26 µM [rising, full curve]
45 | CCCCn1c(SCC(=O)N2CCN(c3ccccc3)CC2)nc2ccsc2c1=O | 8.91 µM [rising, partial curve] | 14.1 µM [rising, single point]
46 | O=C1CSC(=S)N1Cc1cccnc1 | – | 2.82 µM [rising, partial curve, poor fit]
47 | Cc1ccc(/C(C#N)=C\c2cn(C)c3ccccc23)cc1 | – | 31.6 µM [rising, single point]
48 | COc1cc(C2C(C#N)=C(N)Oc3c2c(-c2ccccc2)nn3-c2ccccc2)cc(OC)c1OC (configuration not stated) | – | 15.8 µM [rising, single point]
49 | CC(C)(C)NC(=O)CSc1nsc(SCC(=O)NC(C)(C)C)c1C#N | – | 22.4 µM [rising, partial curve]
50 | Cc1cccc(OCCCn2c(CCNC(=O)C(C)C)nc3ccccc32)c1 | 20 µM [rising, single point] | 35.5 µM [rising, single point]
51 | Cc1ccc(C(=O)N2CCN(c3ccccc3)CC2)cc1S(=O)(=O)N1CCCC1 | 6.31 µM [rising, partial curve] | 14.1 µM [rising, partial curve]
52 | CC(C)(C)c1ccccc1NC(=O)c1c(O)c2cccc3c2n(c1=O)CC3 | 35.5 µM [rising, single point] | 35.5 µM [rising, single point]
53 | Cc1ccc(-c2cc(C(F)F)nc(N3CCOCC3)n2)cc1 | – | 3.98 µM [falling, partial curve]
54 | CCCCc1ccc(NC(=S)NCCc2ccc(S(N)(=O)=O)cc2)cc1 | – | 1.58 µM [falling, partial curve, poor fit]
55 | CCCCc1nn2c(=O)cc(COC(=O)c3ccccc3NC(=O)c3cccc(C)c3)nc2s1 | 6.31 µM [rising, partial curve, poor fit] | 3.55 µM [rising, full curve, poor fit]

Looked up by compound from the entries so far, five records:
Row | Compound | AC50 [1] | AC50 [2]
31 | Cc1nn(-c2ccccc2)c(C)c1/C=N/n1c(-c2ccc(C(C)(C)C)cc2)n[nH]c1=S | 17.8 µM [falling, single point] | 15.8 µM [falling, single point]
40 | CCCC1(c2ccccc2)NC(=O)N(CC(=O)Nc2cc(C)on2)C1=O (configuration not stated) | – | 11.2 µM [rising, partial curve, poor fit]
38 | Cc1ccc(-n2nnnc2SC(C)C(=O)Nc2ccccc2-c2ccccc2)cc1 (configuration not stated) | – | 35.5 µM [rising, single point]
45 | CCCCn1c(SCC(=O)N2CCN(c3ccccc3)CC2)nc2ccsc2c1=O | 8.91 µM [rising, partial curve] | 14.1 µM [rising, single point]
29 | Cc1ccc(CN2CCN(CC(=O)O)C2=O)cc1 | – | 3.98 µM [falling, single point]
